Measured data: PubChem BioAssay AID1224830 (NIAID, 2016)
Assay: 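Genes whose knock-down alters the TNF-alpha reporter response to LPS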 (primary screen). System: human THP-1 monocytic leukaemia cells, TNF dual-luciferase reporter clone, PMA-differentiated to macrophage-like cells. Reagents: siRNA pool against human genes, 50 nM. Timing: LPS for 4 h, given about 3 days after siRNA transfection. Challenge: bacterial LPS (TLR4 ligand), 10 ng/ml. Read-out: 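TNF firefly reporter luminescence divided by renilla, normalised to the plate median, then turned into a robust z-score for each replicate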. Direction: TNF reporter robust z-score: higher = stronger TNF reporter response to LPS. Call rule: 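Each well counts as active if its z-score is over 2.8 or under -1.5; controls are left without a call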.
This is a random part of about 18,000 reagents. Over the whole deposit, about 2,900 (16%) are marked active. 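Calls are made per well; low scores hint the gene aids the LPS response, high scores that it dampens it.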 Repeated entries: four replicate wells of each siRNA pool. Reagent sequences are not shown.

What did the screen give for OR10H1?
TNF reporter robust z-score: -1.17; activity call: inactive

What is on record for OR10H1?
TNF reporter robust z-score: -0.58; activity call: inactive

For OR10H1, what was measured?
TNF reporter robust z-score: -1; activity call: inactive

With OR10H1, how do the results read?
TNF reporter robust z-score: -1.03; activity call: inactive

With ZBTB40, what does the deposit list?
TNF reporter robust z-score: 3.17; activity call: active

With ZBTB40, how do the results read?
TNF reporter robust z-score: 2.82; activity call: active

Which result is listed for ZBTB40?
TNF reporter robust z-score: 2.29; activity call: inactive

What is on record for NCF1?
TNF reporter robust z-score: -0.52; activity call: inactive

With NCF1, what does the deposit list?
TNF reporter robust z-score: 0.05; activity call: inactive

With NCF1, what does the deposit list?
TNF reporter robust z-score: 1.51; activity call: inactive

With NCF1, what was measured?
TNF reporter robust z-score: 0.71; activity call: inactive

What did the screen give for TSC22D3?
TNF reporter robust z-score: -0.27; activity call: inactive

For TSC22D3, how do the results read?
TNF reporter robust z-score: -0.9; activity call: inactive

What is on record for TSC22D3?
TNF reporter robust z-score: -0.31; activity call: inactive

What did the screen give for TSC22D3?
TNF reporter robust z-score: -0.51; activity call: inactive

For HOXB5, how do the results read?
TNF reporter robust z-score: 2.46; activity call: inactive

Which result is listed for HOXB5?
TNF reporter robust z-score: 1.18; activity call: inactive

What is on record for HOXB5?
TNF reporter robust z-score: 0.58; activity call: inactive

With HOXB5, how do the results read?
TNF reporter robust z-score: 1.44; activity call: inactive

For CGA, what does the deposit list?
TNF reporter robust z-score: -0.55; activity call: inactive

For CGA, what was measured?
TNF reporter robust z-score: -0.83; activity call: inactive

How did the screen score CGA?
TNF reporter robust z-score: -0.74; activity call: inactive

What is on record for CGA?
TNF reporter robust z-score: -0.76; activity call: inactive

What did the screen give for EQTN?
TNF reporter robust z-score: -0.66; activity call: inactive

Which result is listed for EQTN?
TNF reporter robust z-score: -1.02; activity call: inactive

For EQTN, how do the results read?
TNF reporter robust z-score: -0.25; activity call: inactive

What did the screen give for EQTN?
TNF reporter robust z-score: 0.7; activity call: inactive

What did the screen give for TYRP1?
TNF reporter robust z-score: 0.66; activity call: inactive

For TYRP1, how do the results read?
TNF reporter robust z-score: -0.18; activity call: inactive

For TYRP1, what does the deposit list?
TNF reporter robust z-score: -0.16; activity call: inactive

What did the screen give for TYRP1?
TNF reporter robust z-score: 0.53; activity call: inactive

With CFAP206, how do the results read?
TNF reporter robust z-score: -0.88; activity call: inactive

Which result is listed for CFAP206?
TNF reporter robust z-score: -0.48; activity call: inactive

Which result is listed for CFAP206?
TNF reporter robust z-score: 0.47; activity call: inactive

Which result is listed for CFAP206?
TNF reporter robust z-score: 0.34; activity call: inactive

Which result is listed for HES6?
TNF reporter robust z-score: -0.75; activity call: inactive

What did the screen give for HES6?
TNF reporter robust z-score: 0.67; activity call: inactive

With HES6, what does the deposit list?
TNF reporter robust z-score: -0.62; activity call: inactive

What is on record for HES6?
TNF reporter robust z-score: 0.51; activity call: inactive

For MAP1B, what does the deposit list?
TNF reporter robust z-score: 0.02; activity call: inactive

What did the screen give for MAP1B?
TNF reporter robust z-score: -0.31; activity call: inactive

For MAP1B, how do the results read?
TNF reporter robust z-score: -1.25; activity call: inactive

For MAP1B, what does the deposit list?
TNF reporter robust z-score: -0.34; activity call: inactive

How did the screen score CCT4?
TNF reporter robust z-score: -0.79; activity call: inactive

What is on record for CCT4?
TNF reporter robust z-score: -0.47; activity call: inactive

For CCT4, what does the deposit list?
TNF reporter robust z-score: -0.24; activity call: inactive

With CCT4, what was measured?
TNF reporter robust z-score: 0.53; activity call: inactive
